These are yes or no findings as the source states them, for the method shown. In cells and extracts the contact can be indirect. Some entries that bind do so weakly or less than the wild type. Tags and fused reporters may be left off the sequences shown.
Legend:
[1] = molecular target: T1, GST-GRIP wild type (GRIP domain of Golgin245 in pGEX-6P1) (UniProt Q13439); experiment: pull-down; IBRP assay: GST-bait on glutathione beads (16 µg/µl), HEK293 lysate with GFP-prey, 100 µM GDP; 30 min at 4°C, washes with 300 mM NaCl, bead fluorescence imaged; only the target purified
T1 sequence: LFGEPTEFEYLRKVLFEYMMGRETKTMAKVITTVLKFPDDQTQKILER

[2] = molecular target: T1, GST-GRIP wild type (GRIP domain of Golgin245 in pGEX-6P1); experiment: pull-down; imaging beads-retained prey (IBRP) assay: GST-bait on glutathione beads (16 µg/µl), HEK293 lysate with GFP-prey, 100 µM GMPPNP; 30 min at 4°C, washes with 300 mM NaCl, bead fluorescence imaged; GFP lysate as control; only the target purified

- binding [1]: binds
- binding [2]: binds
B1: Arl1-GFP (wild type rat Arl1 in pEGFP-N1) (natural protein, UniProt P61212 1-181, looked up)
chain: MGGFFSSIFSSLFGTREMRILILGLDGAGKTTILYRLQVGEVVTTIPTIGFNVETVTYKNLKFQVWDLGGQTSIRPYWRCYYSNTDAVIYVVDSCDRDRIGISKSELVAMLEEEELRKAILVVFANKQDMEQAMTPSEMANALGLPALKDRKWQIFKTSATKGTGLDEAMEWLVETLKSRQ
notes: Arl1, ARF family small GTPase, rat, wild type; source: HEK293, transfected, in lysate

Source: paper PMC3612083, “Imaging Beads-Retained Prey Assay for Rapid and Quantitative Protein-Protein Interaction” (PLoS ONE, 2013)
